{"source": "the supplement of paper PMC8104966", "note": "This is one part of the list. This data set is noisy: repeats of one test often differ as much as different tests do.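 U2OS cells carrying ACE2 were mixed with U2OS cells carrying full-length spike, and fusion was scored by imaging as the share of nuclei showing both cell types' fluorescent markers. A compound counts as an inhibitory hit when it is non-toxic and its fusion z-score falls below -3, meaning more than three standard deviations below the plate's DMSO wells.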", "data": [{"tested_on": "U2OS ACE2 x SARS-CoV-2 spike co-culture", "experiment": "cell-cell fusion (fraction fused) z-score vs plate DMSO control; higher = more fusion", "settings": "30 µM; 5 h; toxicity class: non-toxic, passed QC", "values": [{"smiles": "CNS(=O)(=O)CCc1ccc2[nH]cc(C3CCN(C)CC3)c2c1.Cl", "note": "[Naratriptan]", "cell-cell fusion (z-score)": "inactive: 2.05"}, {"smiles": "CC(C)=CCC/C(C)=C/CC/C(C)=C/CSc1ccccc1C(=O)O", "note": "[Farnesyl Thiosalicylic Acid]", "cell-cell fusion (z-score)": "inactive: 2.1"}, {"smiles": "COC1=CC(C)[C@@H]2C[C@H]3OC(=O)C[C@H]4C(C)=C(OC)C(=O)C([C@@]34C)[C@@]2(C)C1=O", "note": "(stereo partly drawn)", "cell-cell fusion (z-score)": "inactive: 1.83"}, {"smiles": "CNC(=O)Oc1ccccc1OC(C)C", "cell-cell fusion (z-score)": "inactive: 2.01"}, {"smiles": "CN(C)c1ccc2nc3ccc(N(C)C)cc3[s+]c2c1.O.[Cl-]", "cell-cell fusion (z-score)": "inactive: 4.26"}, {"smiles": "CS(=O)(=O)Nc1ccc([N+](=O)[O-])cc1Oc1ccccc1", "note": "[Nimesulide]", "cell-cell fusion (z-score)": "inactive: 1.86"}, {"smiles": "CCC1=C(C)CN(C(=O)NCCc2ccc(S(=O)(=O)NC(=O)N[C@H]3CC[C@H](C)CC3)cc2)C1=O", "cell-cell fusion (z-score)": "inactive: 1.33"}, {"smiles": "OC[C@@H](O)[C@H]1O[C@@H]2O[C@H](C(Cl)(Cl)Cl)O[C@@H]2[C@H]1O", "cell-cell fusion (z-score)": "inactive: -0.109"}, {"smiles": "NS(=O)(=O)C#Cc1ccccc1", "note": "[Pifithrin-mu]", "cell-cell fusion (z-score)": "inactive: 0.553"}, {"smiles": "CC(NC(C)(C)C)C(=O)c1cccc(Cl)c1.Cl", "note": "(stereo not drawn) [Bupropion hydrochloride]", "cell-cell fusion (z-score)": "inactive: 1.71"}, {"smiles": "CN(C/C=C/c1ccccc1)Cc1cccc2ccccc12.Cl", "cell-cell fusion (z-score)": "inactive: 4.96"}, {"smiles": "COc1cc(O)c2c(c1)C(=O)c1cc(C)cc(O)c1C2=O", "cell-cell fusion (z-score)": "inactive: 1.72"}, {"smiles": "c1cnc2c(c1)ccc1cccnc12", "note": "[1,10-Phenanthroline monohydrate]", "cell-cell fusion (z-score)": "inactive: -0.103"}, {"smiles": "CN(C)C/C=C/C(=O)Nc1cc2c(Nc3ccc(F)c(Cl)c3)ncnc2cc1O[C@H]1CCOC1", "note": "[Afatinib (BIBW2992)]", "cell-cell fusion (z-score)": "inactive: 0.887"}, {"smiles": "O=c1ccc2ccc(O)c(O)c2o1", "note": "[Daphnetin]", "cell-cell fusion (z-score)": "inactive: 1.5"}, {"smiles": "C#CC(N)CCC(=O)O", "note": "(stereo not drawn) [gamma-Acetylinic GABA]", "cell-cell fusion (z-score)": "inactive: 0.47"}, {"smiles": "CNCCC(Oc1ccc(C(F)(F)F)cc1)c1ccccc1", "note": "(stereo not drawn) [Fluoxetine]", "cell-cell fusion (z-score)": "inactive: 0.0772"}, {"smiles": "COc1ccc(Cl)cc1C(=O)NCCc1ccc(S(=O)(=O)NC(=O)NC2CCCCC2)cc1", "note": "[Glyburide]", "cell-cell fusion (z-score)": "inactive: 3.84"}, {"smiles": "CO[C@@]1(NC(=O)Cc2cccs2)C(=O)N2C(C(=O)[O-])=C(COC(N)=O)CS[C@@H]21.[Na+]", "cell-cell fusion (z-score)": "inactive: 2.2"}, {"smiles": "Cc1c(-c2ccc(-c3ccccc3F)cc2)nc2ccc(F)cc2c1C(=O)[O-].[Na+]", "note": "[Brequinar sodium salt hydrate]", "cell-cell fusion (z-score)": "inactive: -0.385"}, {"smiles": "Cc1cc2c(F)c(Oc3ncnn4cc(OC[C@@H](C)O)c(C)c34)ccc2[nH]1", "cell-cell fusion (z-score)": "inactive: -2.74"}, {"smiles": "C[C@H]1COc2c(N3CCN(C)CC3)c(F)cc3c(=O)c(C(=O)O)cn1c23", "cell-cell fusion (z-score)": "inactive: 2.8"}, {"smiles": "CC(=O)Oc1cc(OC(C)=O)c2c(c1)O[C@H](c1ccc(OC(C)=O)c(OC(C)=O)c1)[C@H](OC(C)=O)C2", "cell-cell fusion (z-score)": "inactive: -0.149"}, {"smiles": "Nc1nnc(-c2cccc(Cl)c2Cl)c(N)n1", "note": "[Lamotrigine]", "cell-cell fusion (z-score)": "inactive: 2.18"}, {"smiles": "COc1cccc(OC)c1C(=O)N[C@@H]1C(=O)N2[C@@H]1SC(C)(C)[C@@H]2C(=O)[O-].[Na+]", "cell-cell fusion (z-score)": "inactive: 0.269"}, {"smiles": "Cl.Clc1ccc(Cn2c(CN3CCCC3)nc3ccccc32)cc1", "cell-cell fusion (z-score)": "inactive: 2.77"}, {"smiles": "O=C(NC[C@H]1CN(c2ccc(N3CCOCC3=O)cc2)C(=O)O1)c1ccc(Cl)s1", "cell-cell fusion (z-score)": "inactive: 1.59"}, {"smiles": "Cl.O=C(O)C1=CCCNC1", "note": "[Guvacine hydrochloride]", "cell-cell fusion (z-score)": "inactive: 3.65"}, {"smiles": "CC(=O)O[C@H]1CC[C@]2(C)C3=CC(=O)[C@@]4(C)C(C[C@@H]5OC6(OCC(C)CC6Br)[C@@H](C)[C@@H]54)C3CC[C@H]2C1", "note": "(stereo partly drawn) [3beta-ACETOXY-23-BROMO-ISOALLOSPIROST-9 (11)-ENE-12-ONE]", "cell-cell fusion (z-score)": "inactive: 2.92"}, {"smiles": "Nc1nc2ccc(OC(F)(F)F)cc2s1", "note": "[Riluzole]", "cell-cell fusion (z-score)": "inactive: 1.61"}, {"smiles": "CCCCN1CCCC[C@H]1C(=O)Nc1c(C)cccc1C.Cl", "note": "[Levobupivacaine HCl]", "cell-cell fusion (z-score)": "inactive: 0.27"}, {"smiles": "CCCCN1CCCC[C@H]1C(=O)Nc1c(C)cccc1C.Cl", "note": "[Levobupivacaine]", "cell-cell fusion (z-score)": "inactive: 2.09"}, {"smiles": "O=C(O)/C=C\\C(=O)O.c1cnc(N2CCN(Cc3ccc4c(c3)OCO4)CC2)nc1", "note": "[Piribedil maleate]", "cell-cell fusion (z-score)": "inactive: 1.47"}, {"smiles": "CC1(C)CNc2cc(NC(=O)c3cccnc3NCc3ccncc3)ccc21.O=P(O)(O)O.O=P(O)(O)O", "note": "[Motesanib Diphosphate]", "cell-cell fusion (z-score)": "inactive: 2.99"}, {"smiles": "CC1(C)CNc2cc(NC(=O)c3cccnc3NCc3ccncc3)ccc21.O=P(O)(O)O.O=P(O)(O)O", "note": "[Motesanib Diphosphate (AMG-706)]", "cell-cell fusion (z-score)": "inactive: 2.37"}, {"smiles": "CCCCCCN(CCCCCC)C(=O)Cc1c(-c2ccc(F)cc2)[nH]c2ccccc12", "note": "[N,N-Dihexyl-2-(4-fluorophenyl)indole-3-acetamide]", "cell-cell fusion (z-score)": "inactive: 3.18"}, {"smiles": "Cl.O=C(c1ccc(OCCN2CCCCC2)cc1)c1c(-c2ccc(O)cc2)sc2cc(O)ccc12", "cell-cell fusion (z-score)": "inactive: 5.37"}, {"smiles": "Cl.O=C(c1ccc(OCCN2CCCCC2)cc1)c1c(-c2ccc(O)cc2)sc2cc(O)ccc12", "note": "[Raloxifene hydrochloride]", "cell-cell fusion (z-score)": "inactive: 4.68"}, {"smiles": "N#C/C(=C\\c1ccc(O)c(O)c1)C(=O)NCc1ccccc1", "note": "[AG-490 (Tyrphostin B42)]", "cell-cell fusion (z-score)": "inactive: 1.04"}, {"smiles": "N[C@@H](Cc1ccc(F)cc1)C(=O)O", "note": "[p-Fluoro-L-phenylalanine]", "cell-cell fusion (z-score)": "inactive: 4.35"}, {"smiles": "OB1OCc2cc(F)ccc21", "note": "[Tavaborole]", "cell-cell fusion (z-score)": "inactive: 1.62"}, {"smiles": "COc1ccc(/C=C/c2cc(O)cc(O)c2)cc1", "cell-cell fusion (z-score)": "inactive: 1.5"}, {"smiles": "O=C(Nc1ccncc1)c1cc([N+](=O)[O-])ccc1Cl", "cell-cell fusion (z-score)": "inactive: 0.596"}, {"smiles": "COC(=O)C1=C(C)NC(C)=C(C(=O)OC(C)C)C1c1cccc2nonc12", "note": "(stereo not drawn) [Isradipine]", "cell-cell fusion (z-score)": "inactive: 3.76"}, {"smiles": "Oc1c(I)cc(I)c2cccnc12", "cell-cell fusion (z-score)": "inactive: 0.141"}, {"smiles": "O=c1ccc2cc(O)c(O)cc2o1", "cell-cell fusion (z-score)": "inactive: 2.58"}, {"smiles": "NCCCNCCSP(=O)(O)O", "cell-cell fusion (z-score)": "inactive: 2.11"}, {"smiles": "NCCCNCCSP(=O)(O)O", "note": "[Amifostine]", "cell-cell fusion (z-score)": "inactive: 1.67"}, {"smiles": "Cc1cc2c(C(C)C)c(O)c(O)c(C=O)c2c(O)c1-c1c(C)cc2c(C(C)C)c(O)c(O)c(C=O)c2c1O", "note": "[Gossypol]", "cell-cell fusion (z-score)": "active: -4.28"}, {"smiles": "CC(N)[C@H](O)c1ccc(O)c(O)c1", "note": "(single isomer, unassigned; (-)) [(-)-alpha-Methylnorepinephrine]", "cell-cell fusion (z-score)": "inactive: -1.4"}, {"smiles": "CO[C@H]1CC(O[C@@H]2/C(C)=C/C[C@@H]3C[C@@H](C[C@]4(C=C[C@H](C)[C@@H](C5CCCCC5)O4)O3)OC(=O)[C@@H]3C=C(C)[C@@H](O)[C@H]4OC/C(=C\\C=C\\[C@@H]2C)[C@]43O)O[C@@H](C)C1O[C@H]1C[C@H](OC)[C@@H](O)[C@H](C)O1", "note": "(stereo partly drawn)", "cell-cell fusion (z-score)": "inactive: 2.66"}, {"smiles": "CN1C[C@H](C(=O)N[C@]2(C)O[C@@]3(O)C4CCCN4C(=O)[C@H](Cc4ccccc4)N3C2=O)C=C2c3cccc4[nH]cc(c34)C[C@H]21.O=C(O)[C@H](O)[C@@H](O)C(=O)O", "note": "(stereo partly drawn)", "cell-cell fusion (z-score)": "inactive: 3.32"}, {"smiles": "O=C([O-])CCNC(=O)c1ccc(/N=N/c2ccc(O)c(C(=O)[O-])c2)cc1.[Na+].[Na+]", "cell-cell fusion (z-score)": "inactive: 2.8"}, {"smiles": "O=C(O)CSc1nnc(Br)n1-c1ccc(C2CC2)c2ccccc12", "note": "[Lesinurad]", "cell-cell fusion (z-score)": "inactive: 1.05"}, {"smiles": "COc1ccc2cc([C@H](C)C(=O)O)ccc2c1", "note": "[Naproxen]", "cell-cell fusion (z-score)": "inactive: 0.773"}, {"smiles": "CC(C)(C)c1[nH]cnc1/C=c1\\[nH]c(=O)/c(=C/c2ccccc2)[nH]c1=O", "note": "[NPI-2358 (Plinabulin)]", "cell-cell fusion (z-score)": "inactive: 1.32"}, {"smiles": "CC(=O)N(O)CCCCCNC(=O)CCC(=O)N(O)CCCCCNC(=O)CCC(=O)N(O)CCCCCN.CS(=O)(=O)O", "note": "[Deferoxamine Mesylate]", "cell-cell fusion (z-score)": "inactive: 2.85"}, {"smiles": "CC(=O)N(O)CCCCCNC(=O)CCC(=O)N(O)CCCCCNC(=O)CCC(=O)N(O)CCCCCN.CS(=O)(=O)O", "cell-cell fusion (z-score)": "inactive: 1.04"}, {"smiles": "C=CC1=C(C(=O)O)N2C(=O)[C@@H](NC(=O)/C(=N\\OCC(=O)O)c3csc(N)n3)[C@H]2SC1", "note": "[Cefixime]", "cell-cell fusion (z-score)": "inactive: 4.26"}, {"smiles": "CCCCCCCC/C=C\\CCCCCCCC(=O)NCc1ccc(O)c(OC)c1", "note": "[Olvanil]", "cell-cell fusion (z-score)": "inactive: 2.33"}, {"smiles": "Cl.c1ccc2c(CC3=NCCN3)cccc2c1", "cell-cell fusion (z-score)": "inactive: 1.13"}, {"smiles": "N#Cc1cc([N+](=O)[O-])c2sc(C(N)=O)[n+]([O-])c2c1", "cell-cell fusion (z-score)": "inactive: 0.892"}, {"smiles": "Cl.[NH-]c1c[n+](N2CCOCC2)no1", "note": "[3-Morpholinosydnonimine hydrochloride]", "cell-cell fusion (z-score)": "inactive: 1.9"}, {"smiles": "C#CCCCCCCCCCCCC(O)CC(O)CO", "note": "(stereo not drawn)", "cell-cell fusion (z-score)": "inactive: 1.33"}, {"smiles": "CCOC(=O)CCC(=O)O[C@H]1[C@H](O[C@@H]2[C@@H](C)[C@H](O[C@H]3C[C@@](C)(OC)[C@@H](O)[C@H](C)O3)[C@@H](C)C(=O)O[C@H](CC)[C@@](C)(O)[C@H](O)[C@@H](C)C(=O)[C@H](C)C[C@@]2(C)O)O[C@H](C)C[C@@H]1N(C)C", "cell-cell fusion (z-score)": "inactive: 0.948"}, {"smiles": "CN1CCC(=C2c3ccccc3CCc3sccc32)CC1.O=C(O)CC(O)C(=O)O", "cell-cell fusion (z-score)": "inactive: 0.169"}, {"smiles": "NCC(CP(=O)(O)O)c1ccc(Cl)cc1", "note": "(stereo not drawn) [Phaclofen]", "cell-cell fusion (z-score)": "inactive: 1.28"}, {"smiles": "Cl.NC1C=CC=C(C(=O)O)C1", "note": "(stereo not drawn) [Gabaculine hydrochloride]", "cell-cell fusion (z-score)": "inactive: 1.88"}]}]}
